# No constants are given. Whether binding was seen depends on the method and setting. Binding seen in cells or lysates may run through a third protein. Tags and fused reporters may be left off the sequences shown.
# T1: Swt21-TAP (TAP-tagged Swt21p) (S. cerevisiae) (UniProt P53873)
# T1 sequence: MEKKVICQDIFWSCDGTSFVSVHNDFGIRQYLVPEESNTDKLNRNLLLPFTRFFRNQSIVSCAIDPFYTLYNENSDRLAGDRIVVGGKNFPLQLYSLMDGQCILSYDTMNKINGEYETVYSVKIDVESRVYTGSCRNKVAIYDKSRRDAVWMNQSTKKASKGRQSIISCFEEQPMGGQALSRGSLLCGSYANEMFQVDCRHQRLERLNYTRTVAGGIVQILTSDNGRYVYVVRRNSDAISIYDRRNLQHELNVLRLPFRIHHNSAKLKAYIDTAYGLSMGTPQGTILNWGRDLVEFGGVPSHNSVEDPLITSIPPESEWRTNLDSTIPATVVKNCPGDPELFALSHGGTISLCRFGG
# B1: Nam8-HA (HA-tagged Nam8p) (protein, UniProt Q00539 1-523)
# chain: MSYKQTTYYPSRGNLVRNDSSPYTNTISSETNNSSTSVLSLQGASNVSLGTTGNQLYMGDLDPTWDKNTVRQIWASLGEANINVRMMWNNTLNNGSRSSMGPKNNQGYCFVDFPSSTHAANALLKNGMLIPNFPNKKLKLNWATSSYSNSNNSLNNVKSGNNCSIFVGDLAPNVTESQLFELFINRYASTSHAKIVHDQVTGMSKGYGFVKFTNSDEQQLALSEMQGVFLNGRAIKVGPTSGQQQHVSGNNDYNRSSSSLNNENVDSRFLSKGQSFLSNGNNNMGFKRNHMSQFIYPVQQQPSLNHFTDPNNTTVFIGGLSSLVTEDELRAYFQPFGTIVYVKIPVGKCCGFVQYVDRLSAEAAIAGMQGFPIANSRVRLSWGRSAKQTALLQQAMLSNSLQVQQQQPGLQQPNYGYIPSSTCEAPVLPDNNVSSTMLPGCQILNYSNPYANANGLGSNNFSFYSNNNATNTQATSLLADTSSMDLSGTGGQQVIMQGSEAVVNSTNAMLNRLEQGSNGFMFA
# Target: T1, Swt21-TAP (TAP-tagged Swt21p) (S. cerevisiae)
# Assay: co-IP; extracts (without ATP or pre-mRNA) from Non-TAP and Swt21-TAP strains carrying Nam8-HA incubated with IgG Sepharose 6 Fast Flow, 2 h at 4 °C, IPP300 buffer; precipitates blotted with anti-HA
binder,measurement,value
B1,binding,no binding
